These are yes or no findings as the source states them, for the method shown. In cells and extracts the contact can be indirect. Some results given as binding are weak or reduced against the parent protein; the word gives no strength.
Biological target: endogenous CD3ϵ of primary mouse CD3+ T cells (mouse (endogenous in primary CD3+ T cells)) (UniProt P22646)
Assay: co-IP; endogenous proteins; lysate of primary mouse CD3+ T cells immunoprecipitated with rat anti-CD3ϵ antibody, rat IgG as control; immunoblot

Chains of the proteins cited; added tags and fusions are not shown. Residues count along the entry.
UniProt P22646, residues 22-189: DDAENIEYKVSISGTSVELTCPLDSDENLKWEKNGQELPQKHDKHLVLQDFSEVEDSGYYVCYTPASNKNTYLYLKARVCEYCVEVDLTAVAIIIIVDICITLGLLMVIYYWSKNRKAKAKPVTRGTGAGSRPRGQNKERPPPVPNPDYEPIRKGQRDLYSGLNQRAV

B1: endogenous CCDC134 of primary mouse CD3+ T cells (protein, UniProt Q8C7V8 23-229)
chain: ALKSTLDPSLKIYKKMFEVKRREQLLALKNLAQLNDIHQQYKILDVMLKGLFKVLEDSRTVLIAADVLPDGPVPQDEKLKDAFSHVVENTAFFGDVVLRFPKIVHHYFDHNSNWNLLIRWGISFCNQTGVFDQGPHSPILSLMAQELGITEKDSDFRNPFKTDQTEFIPSTDPFQKALREEEKRRKKEERRKEIRKGPRISRSQSEL
Which binding does the source give for B1 here?
The binding was “binds”.
